These are yes or no findings as the source states them, for the method shown. Binding seen in cells or lysates may run through a third protein. Some results given as binding are weak or reduced against the parent protein; the word gives no strength.
Tests used:
[1] = biological target: Gβ1 (untagged) with GFP10-Gγ1 (UniProt P62873); experiment: FRET or BRET; living HEK 293 cells (HA-β1AR stable line or transfected receptor: β1AR, β2AR, D2R, D4R or TPαR); Gα-Rluc donor, GFP10-Gγ1 acceptor, untagged Gβ1; titration, kinetic and concentration-response curves with or without agonist (1 μM isoproterenol); a decrease in BRET is read as separation of Gα from Gβγ; 37 °C, Tyrode's-HEPES or Kreb's/HEPES buffer pH 7.4
[2] = biological target: β1-adrenergic receptor fused to GFP10 (β1AR-GFP10) (UniProt P08588); experiment: FRET or BRET; living HEK 293 cells; hβarrestin2-RlucII donor, β1AR-GFP10 acceptor; isoproterenol, epinephrine, norepinephrine or indacaterol; BRET read 10 min after agonist
[3] = biological target: β1-adrenergic receptor fused to GFP10 (β1AR-GFP10) (UniProt P08588); experiment: condition: only with isoetharine, xamoterol or salmeterol as the ligand; FRET or BRET; as a3, but with isoetharine, xamoterol or salmeterol as the ligand

Protein sequences, listed by entry. Tags and fused reporters are not part of them. Lines headed by an entry give the natural chain unless they say otherwise; changes in a name come on top.
UniProt P62873: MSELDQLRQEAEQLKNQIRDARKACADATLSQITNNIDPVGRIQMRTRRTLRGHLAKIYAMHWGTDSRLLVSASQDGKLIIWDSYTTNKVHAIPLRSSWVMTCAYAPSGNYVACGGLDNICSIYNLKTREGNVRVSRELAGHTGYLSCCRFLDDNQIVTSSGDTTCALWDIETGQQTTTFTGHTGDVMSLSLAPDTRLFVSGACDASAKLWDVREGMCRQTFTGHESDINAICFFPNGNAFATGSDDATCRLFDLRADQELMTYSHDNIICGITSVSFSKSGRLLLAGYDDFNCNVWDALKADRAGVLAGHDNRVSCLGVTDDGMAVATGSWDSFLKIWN
UniProt P08588: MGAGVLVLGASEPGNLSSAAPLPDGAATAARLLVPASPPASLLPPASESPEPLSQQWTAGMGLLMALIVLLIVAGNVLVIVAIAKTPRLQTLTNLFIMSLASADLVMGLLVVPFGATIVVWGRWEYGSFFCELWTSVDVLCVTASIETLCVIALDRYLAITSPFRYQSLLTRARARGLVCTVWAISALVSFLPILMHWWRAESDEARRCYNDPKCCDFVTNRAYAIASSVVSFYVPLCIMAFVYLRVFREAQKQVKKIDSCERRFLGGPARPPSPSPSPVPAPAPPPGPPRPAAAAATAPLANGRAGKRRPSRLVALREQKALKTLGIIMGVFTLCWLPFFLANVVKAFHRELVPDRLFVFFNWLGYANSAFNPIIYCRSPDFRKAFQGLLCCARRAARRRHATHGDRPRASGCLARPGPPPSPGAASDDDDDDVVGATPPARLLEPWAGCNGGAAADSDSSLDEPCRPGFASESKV
UniProt Q03113: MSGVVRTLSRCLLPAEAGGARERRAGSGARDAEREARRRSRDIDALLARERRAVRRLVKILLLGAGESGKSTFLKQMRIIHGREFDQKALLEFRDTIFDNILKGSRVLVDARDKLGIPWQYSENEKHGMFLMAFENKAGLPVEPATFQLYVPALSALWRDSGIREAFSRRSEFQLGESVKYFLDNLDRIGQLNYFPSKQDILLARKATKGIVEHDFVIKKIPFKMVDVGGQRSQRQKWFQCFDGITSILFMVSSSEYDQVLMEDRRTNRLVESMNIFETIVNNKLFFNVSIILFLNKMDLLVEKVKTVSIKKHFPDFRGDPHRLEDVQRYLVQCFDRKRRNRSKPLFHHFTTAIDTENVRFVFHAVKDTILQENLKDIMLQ
UniProt P32121: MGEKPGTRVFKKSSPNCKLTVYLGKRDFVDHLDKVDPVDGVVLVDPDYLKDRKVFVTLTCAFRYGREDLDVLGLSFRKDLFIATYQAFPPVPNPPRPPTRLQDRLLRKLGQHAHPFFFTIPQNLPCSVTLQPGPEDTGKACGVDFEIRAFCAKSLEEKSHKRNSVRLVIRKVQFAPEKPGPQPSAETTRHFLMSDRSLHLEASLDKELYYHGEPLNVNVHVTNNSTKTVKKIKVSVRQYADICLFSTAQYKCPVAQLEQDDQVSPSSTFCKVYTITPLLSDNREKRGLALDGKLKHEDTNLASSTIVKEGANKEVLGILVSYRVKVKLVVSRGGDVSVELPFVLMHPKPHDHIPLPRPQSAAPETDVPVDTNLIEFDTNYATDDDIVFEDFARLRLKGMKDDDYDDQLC

Question: “Gα12-84RlucII (from UniProt Q03113 1-381)” was tested. Which binding [1] did it give?
Answer: binds

Question: “hβarrestin2-RlucII (from UniProt P32121 1-409)” was tested. Which binding [2] did it give?
Answer: binds

Question: What about the binding [3] of the same substance?
Answer: no binding
